# ± gives the standard deviation of the averaged measurements. This is one part of the list.
# Assays:
# Experiment in all cases: NP40-soluble protein abundance relative to vehicle (solubility fold change) (ratio); higher = more soluble protein in presence of GTP
# [1] = target: T1, UniProt Q8N5A5 and related entries
# T1 sequence (whole entry): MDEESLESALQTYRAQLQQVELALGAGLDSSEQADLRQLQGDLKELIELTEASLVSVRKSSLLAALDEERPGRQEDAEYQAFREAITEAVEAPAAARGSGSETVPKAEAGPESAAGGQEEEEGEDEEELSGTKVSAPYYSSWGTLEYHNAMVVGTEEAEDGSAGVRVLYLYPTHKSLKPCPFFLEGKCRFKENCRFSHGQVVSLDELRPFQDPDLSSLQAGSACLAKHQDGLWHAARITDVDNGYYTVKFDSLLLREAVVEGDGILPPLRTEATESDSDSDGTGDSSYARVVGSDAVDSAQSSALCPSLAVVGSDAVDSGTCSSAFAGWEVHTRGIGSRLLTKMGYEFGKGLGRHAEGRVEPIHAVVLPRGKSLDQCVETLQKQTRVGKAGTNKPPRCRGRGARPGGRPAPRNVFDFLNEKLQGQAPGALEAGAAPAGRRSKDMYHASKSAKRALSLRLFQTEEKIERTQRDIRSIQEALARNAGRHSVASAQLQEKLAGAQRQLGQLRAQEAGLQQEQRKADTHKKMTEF
# How it was run: (§1)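 Eight concentrations, 0.1 to 10 mM, were tested on Jurkat crude lysate for 10 min at room temperature and then 3 min at 37 °C, in three independent experiments. The lysate was solubilised with 0.8% NP40 and benzonase, ultracentrifuged, and the supernatant TMT-labelled for LC-MS/MS. Each value is the fold change against the detergent-processed vehicle in its own replicate, from vsn-normalised intensities.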
# UniProt Q8N5L8 = target: T2, UniProt Q8N5L8
# T2 sequence (whole entry): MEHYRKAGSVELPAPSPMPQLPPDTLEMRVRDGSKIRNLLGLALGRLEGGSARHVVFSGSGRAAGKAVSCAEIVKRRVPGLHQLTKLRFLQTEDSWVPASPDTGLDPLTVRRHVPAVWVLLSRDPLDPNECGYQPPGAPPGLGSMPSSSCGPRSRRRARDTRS
# How it was run: as §1
# [2] = target: T3, UniProt Q8N5Y8 and related entries
# T3 sequence (whole entry): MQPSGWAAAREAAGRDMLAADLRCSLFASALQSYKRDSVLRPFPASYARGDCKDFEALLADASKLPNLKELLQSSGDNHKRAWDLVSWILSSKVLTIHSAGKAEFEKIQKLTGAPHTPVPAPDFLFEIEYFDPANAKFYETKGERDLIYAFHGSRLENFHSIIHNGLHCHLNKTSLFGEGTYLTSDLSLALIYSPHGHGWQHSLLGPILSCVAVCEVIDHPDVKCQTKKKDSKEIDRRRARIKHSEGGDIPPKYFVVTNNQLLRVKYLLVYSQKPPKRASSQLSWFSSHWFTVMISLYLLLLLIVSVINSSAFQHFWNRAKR
# How it was run: as §1
# [3] = target: T4, UniProt Q8NBM4 and related entries
# T4 sequence (whole entry): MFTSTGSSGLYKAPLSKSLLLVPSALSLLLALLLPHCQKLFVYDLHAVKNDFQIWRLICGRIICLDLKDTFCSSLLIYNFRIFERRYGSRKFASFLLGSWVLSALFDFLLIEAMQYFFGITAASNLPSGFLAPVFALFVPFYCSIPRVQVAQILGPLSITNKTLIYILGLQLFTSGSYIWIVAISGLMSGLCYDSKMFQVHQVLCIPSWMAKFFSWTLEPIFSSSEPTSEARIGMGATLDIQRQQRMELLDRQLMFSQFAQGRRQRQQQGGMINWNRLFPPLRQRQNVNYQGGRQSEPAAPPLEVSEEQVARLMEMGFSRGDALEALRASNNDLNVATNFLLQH
# How it was run: as §1
# [4] = target: T5, UniProt Q8NBN7 and related entries
# T5 sequence (whole entry): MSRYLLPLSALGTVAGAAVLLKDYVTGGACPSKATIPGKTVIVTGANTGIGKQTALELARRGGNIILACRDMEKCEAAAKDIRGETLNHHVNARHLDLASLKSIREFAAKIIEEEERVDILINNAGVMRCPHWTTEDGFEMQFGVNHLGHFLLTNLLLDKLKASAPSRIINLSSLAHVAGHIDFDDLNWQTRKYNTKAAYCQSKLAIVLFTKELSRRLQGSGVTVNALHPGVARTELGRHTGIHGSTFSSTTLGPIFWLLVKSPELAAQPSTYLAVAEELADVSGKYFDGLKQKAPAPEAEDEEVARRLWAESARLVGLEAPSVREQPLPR
# How it was run: as §1
# [5] = target: T6, UniProt Q8TB36 and related entries
# T6 sequence (whole entry): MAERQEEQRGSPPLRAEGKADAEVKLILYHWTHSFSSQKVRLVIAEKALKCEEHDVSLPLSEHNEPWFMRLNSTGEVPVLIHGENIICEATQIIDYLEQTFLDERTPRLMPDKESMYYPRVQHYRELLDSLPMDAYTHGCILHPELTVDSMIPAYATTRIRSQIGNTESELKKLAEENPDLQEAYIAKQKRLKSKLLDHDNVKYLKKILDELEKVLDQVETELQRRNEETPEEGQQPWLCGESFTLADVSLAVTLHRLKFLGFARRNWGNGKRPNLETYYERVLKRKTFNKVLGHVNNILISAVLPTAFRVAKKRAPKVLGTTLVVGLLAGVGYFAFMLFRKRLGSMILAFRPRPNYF
# How it was run: as §1
structure (smiles),measurement,setting,value
Nc1nc2c(ncn2[C@@H]2O[C@H](COP(=O)(O)OP(=O)(O)OP(=O)(O)O)[C@@H](O)[C@H]2O)c(=O)[nH]1 [guanosine triphosphate],NP40-soluble protein abundance,[1]; concentration: 8mM,1.13 ± 0.072
same,NP40-soluble protein abundance,[1]; concentration: 10mM,1.15 ± 0.08
same,NP40-soluble protein abundance,UniProt Q8N5L8; concentration: 0.1mM,0.973 ± 0.088
same,NP40-soluble protein abundance,UniProt Q8N5L8; concentration: 0.5mM,0.914 ± 0.12
same,NP40-soluble protein abundance,UniProt Q8N5L8; concentration: 1mM,1.2 ± 0.16
same,NP40-soluble protein abundance,UniProt Q8N5L8; concentration: 2mM,1.21 ± 0.08
same,NP40-soluble protein abundance,UniProt Q8N5L8; concentration: 4mM,1.26 ± 0.082
same,NP40-soluble protein abundance,UniProt Q8N5L8; concentration: 6mM,1.25 ± 0.12
same,NP40-soluble protein abundance,UniProt Q8N5L8; concentration: 8mM,1.31 ± 0.2
same,NP40-soluble protein abundance,UniProt Q8N5L8; concentration: 10mM,1.38 ± 0.22
same,NP40-soluble protein abundance,[2]; concentration: 0.1mM,1.04 ± 0.075
same,NP40-soluble protein abundance,[2]; concentration: 0.5mM,1.06 ± 0.12
same,NP40-soluble protein abundance,[2]; concentration: 1mM,1.01 ± 0.088
same,NP40-soluble protein abundance,[2]; concentration: 2mM,1.02 ± 0.11
same,NP40-soluble protein abundance,[2]; concentration: 4mM,1.06 ± 0.14
same,NP40-soluble protein abundance,[2]; concentration: 6mM,1.01 ± 0.076
same,NP40-soluble protein abundance,[2]; concentration: 8mM,0.966 ± 0.11
same,NP40-soluble protein abundance,[2]; concentration: 10mM,0.976 ± 0.11
same,NP40-soluble protein abundance,[3]; concentration: 0.1mM,1.07 ± 0.063
same,NP40-soluble protein abundance,[3]; concentration: 0.5mM,0.969 ± 0.056
same,NP40-soluble protein abundance,[3]; concentration: 1mM,0.969 ± 0.026
same,NP40-soluble protein abundance,[3]; concentration: 2mM,1.02 ± 0.051
same,NP40-soluble protein abundance,[3]; concentration: 4mM,1.06 ± 0.029
same,NP40-soluble protein abundance,[3]; concentration: 6mM,1.06 ± 0.042
same,NP40-soluble protein abundance,[3]; concentration: 8mM,1.03 ± 0.052
same,NP40-soluble protein abundance,[3]; concentration: 10mM,1.03 ± 0.084
same,NP40-soluble protein abundance,[4]; concentration: 0.1mM,0.969 ± 0.067
same,NP40-soluble protein abundance,[4]; concentration: 0.5mM,1.02 ± 0.096
same,NP40-soluble protein abundance,[4]; concentration: 1mM,1 ± 0.052
same,NP40-soluble protein abundance,[4]; concentration: 2mM,0.999 ± 0.087
same,NP40-soluble protein abundance,[4]; concentration: 4mM,0.949 ± 0.044
same,NP40-soluble protein abundance,[4]; concentration: 6mM,0.973 ± 0.064
same,NP40-soluble protein abundance,[4]; concentration: 8mM,0.932 ± 0.065
same,NP40-soluble protein abundance,[4]; concentration: 10mM,0.964 ± 0.07
same,NP40-soluble protein abundance,[5]; concentration: 0.1mM,0.967 ± 0.032
same,NP40-soluble protein abundance,[5]; concentration: 0.5mM,0.987 ± 0.037
same,NP40-soluble protein abundance,[5]; concentration: 1mM,0.916 ± 0.038
same,NP40-soluble protein abundance,[5]; concentration: 2mM,0.924 ± 0.058
same,NP40-soluble protein abundance,[5]; concentration: 4mM,0.894 ± 0.024
same,NP40-soluble protein abundance,[5]; concentration: 6mM,0.918 ± 0.041
same,NP40-soluble protein abundance,[5]; concentration: 8mM,0.891 ± 0.032
same,NP40-soluble protein abundance,[5]; concentration: 10mM,0.88 ± 0.038

# A different layout for some results above:
structure (smiles) | measurement | setting | value
Nc1nc2c(ncn2[C@@H]2O[C@H](COP(=O)(O)OP(=O)(O)OP(=O)(O)O)[C@@H](O)[C@H]2O)c(=O)[nH]1 [guanosine triphosphate] | NP40-soluble protein abundance | [4]; concentration: 10mM | 0.964 ± 0.07
same | NP40-soluble protein abundance | [5]; concentration: 0.1mM | 0.967 ± 0.032
same | NP40-soluble protein abundance | [5]; concentration: 0.5mM | 0.987 ± 0.037
